Data as given in PubChem BioAssay AID624150 (Cancer Research UK Cambridge, 2012).
Aim: 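Which chromatin factors steer differentiation of epidermal stem cells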 (primary screen). Cell system: primary human epidermal keratinocytes. Reagents: siRNA pool against human genes, 1-2 µM siRNA in 20 µl nucleofection. Timing: 72 h after transfection plus 48 h differentiation (about 5 days). Challenge: five arms for 48 h: vehicle, AG1478 10 µM, BMP2/7 200 ng/ml, both together, or 10% serum. Measured: 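Per-cell amount of a differentiation marker read by infrared scanning of the plate, given as a z-score within each plate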. Reading the numbers: z-score, vehicle and z-score, AG1478 10 µM: higher = more differentiation marker per cell.
The deposit covers 331 reagents; shown is a part drawn at random. 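Each arm had three replicate z-scores, but only the first replicate is printed; higher values mean more differentiation marker per cell.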 Not all columns of the deposit are shown.

PRDM12 (GeneID 59335)
- z-score, vehicle: -0.241
- z-score, AG1478 10 µM: 0.331

HDAC8 (GeneID 55869)
- z-score, vehicle: 1.1
- z-score, AG1478 10 µM: -0.987

MTA1 (GeneID 9112)
- z-score, vehicle: -0.837
- z-score, AG1478 10 µM: -0.142

NSD3 (GeneID 54904)
- z-score, vehicle: -2.17
- z-score, AG1478 10 µM: -2.62

CHD8 (GeneID 57680)
- z-score, vehicle: -0.96
- z-score, AG1478 10 µM: -2.07

KDM6A (GeneID 7403)
- z-score, vehicle: 0.349
- z-score, AG1478 10 µM: 2.54

JADE1 (GeneID 79960)
- z-score, vehicle: 1.67
- z-score, AG1478 10 µM: 2.9

SCMH1 (GeneID 22955)
- z-score, vehicle: -1.12
- z-score, AG1478 10 µM: 0.127

NSD1 (GeneID 64324)
- z-score, vehicle: -1.17
- z-score, AG1478 10 µM: -1.19

TRDMT1 (GeneID 1787)
- z-score, vehicle: 0.661
- z-score, AG1478 10 µM: 0.438

CHAF1A (GeneID 10036)
- z-score, vehicle: -1.08
- z-score, AG1478 10 µM: 0.338

PHF1 (GeneID 5252)
- z-score, vehicle: -1.51
- z-score, AG1478 10 µM: -1.85

ORC1 (GeneID 4998)
- z-score, vehicle: -1.35
- z-score, AG1478 10 µM: -0.988

PRG4 (GeneID 10216)
- z-score, vehicle: 1.48
- z-score, AG1478 10 µM: 2.21

BAZ1B (GeneID 9031)
- z-score, vehicle: 0.0755
- z-score, AG1478 10 µM: 0.941

PBRM1 (GeneID 55193)
- z-score, vehicle: 0.901
- z-score, AG1478 10 µM: 0.602

L3MBTL2 (GeneID 83746)
- z-score, vehicle: 1.07
- z-score, AG1478 10 µM: -0.372

TDRD12 (GeneID 91646)
- z-score, vehicle: 0.516
- z-score, AG1478 10 µM: 0.044

SMARCA5 (GeneID 8467)
- z-score, vehicle: 3.61
- z-score, AG1478 10 µM: 2.86

Targets above whose gene name begins with T or t (2):
TRDMT1 (GeneID 1787)
- z-score, vehicle: 0.661
- z-score, AG1478 10 µM: 0.438

TDRD12 (GeneID 91646)
- z-score, vehicle: 0.516
- z-score, AG1478 10 µM: 0.044
